# Library screening results

Protein sequences, listed by entry. Tags and fused reporters are not part of them.
UniProt E9BF75, entry or part of it: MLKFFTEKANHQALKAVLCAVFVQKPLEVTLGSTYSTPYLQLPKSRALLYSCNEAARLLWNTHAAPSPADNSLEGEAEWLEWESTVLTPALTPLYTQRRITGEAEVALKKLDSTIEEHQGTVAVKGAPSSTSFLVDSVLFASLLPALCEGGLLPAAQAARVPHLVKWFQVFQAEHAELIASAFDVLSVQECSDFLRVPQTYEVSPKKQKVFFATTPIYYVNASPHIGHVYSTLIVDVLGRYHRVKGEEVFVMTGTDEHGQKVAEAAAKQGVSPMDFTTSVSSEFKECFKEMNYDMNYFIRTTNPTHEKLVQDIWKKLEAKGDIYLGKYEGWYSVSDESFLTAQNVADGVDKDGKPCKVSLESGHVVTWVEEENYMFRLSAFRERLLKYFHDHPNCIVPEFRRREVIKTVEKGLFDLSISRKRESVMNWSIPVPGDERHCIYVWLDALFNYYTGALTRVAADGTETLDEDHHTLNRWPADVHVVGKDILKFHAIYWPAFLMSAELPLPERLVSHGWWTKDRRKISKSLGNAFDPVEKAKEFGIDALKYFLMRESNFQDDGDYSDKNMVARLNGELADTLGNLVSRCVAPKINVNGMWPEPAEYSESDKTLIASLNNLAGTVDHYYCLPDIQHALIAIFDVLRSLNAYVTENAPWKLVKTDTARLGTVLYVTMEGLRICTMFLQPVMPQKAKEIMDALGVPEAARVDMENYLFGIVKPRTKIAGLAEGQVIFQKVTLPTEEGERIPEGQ

Results are percentages, as filed. The controls that fix the scale are not given in the record; negative values are as filed. Compounds were drawn at random from those tested, without regard to their results.

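Methionyl-tRNA synthetase (putative), Leishmania donovani (UniProt E9BF75). Primary screen of methionyl-tRNA synthetase; the read-out is not stated. The test concentration is not given. The values are filed as inhibition. Of about 68,000 compounds tested this way, about 24 (0.035%) reached 50% or more in at least one test.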

- Cc1ccc(S(=O)(=O)Nc2ccc(-n3ccnc3C)nc2)cc1N(C)C : 11.76%
- CCN(C1CCN(Cc2ncc(C(C)(C)C)o2)CC1)S(C)(=O)=O : 15.86%
- Cc1cnn(CC2CCCCN2C(=O)Cc2cccc(F)c2)c1 (centres unmarked) : 19.2%
- O=C(N[C@@H]1CN(Cc2cccc(F)c2)C[C@H]1O)c1cscn1 : 8.235%
- CCN1CCC(CNc2nccc(C)n2)(N(C)C)CC1 : 11.91%
- CC(=O)c1cccc(OCCCC(=O)NCC2CCCN2C)c1 (centres unmarked) : 22.45%
- Cn1cc(CN2CC[C@H]3OCC[C@@H](C(=O)NC4CCCC4)[C@@H]3C2)cn1 : 18.73%
- COCc1nc(C(=O)NS(=O)(=O)c2ccc(C)s2)cs1 : 10.43%
- COc1ccc(C2CCCN2C(=O)NCCn2ccnc2)cc1OC (centres unmarked) : 4.738%
- CCOc1ccc(C(=O)Nc2c(C)nc3cccc(C)n3c2=O)cc1 : 16.91%
- Cc1cnn(C2CN(CC(=O)NCC3(c4ccccc4)CC3)C2)c1 : 10.6%
- Cc1nc2ccccn2c1CN1C[C@@H](CN(C)CCO)[C@@H](CO)C1 : 19.79%
- CN1CCc2c(C#N)c(NCCc3ccccc3)n3cnnc3c2C1 : 13.99%
- O=C1CN(c2ccc(CNC(=O)c3ccc[nH]3)cc2F)CCN1 : 13.04%
- O=C(CN1CCCC1Cn1cncn1)Nc1nncs1 (centres unmarked) : 7.649%
- CC(NC(=O)N1CCC(n2cncn2)CC1)c1ccc(F)cc1 (centres unmarked) : 16.76%
- O=C([C@H]1COC[C@H]2CN(C3CCCC3)C[C@H]21)N1CCOCC1 : 12.32%
- Fc1cccc(-c2nc(CN3CCOC(Cn4cncn4)C3)co2)c1 (centres unmarked) : -2.347%
- Cc1c(Cl)c(C(F)(F)F)nn1C(C)C(=O)NN1CCN(C)CC1 (centres unmarked) : 8.287%
- CN(c1ncc(S(N)(=O)=O)s1)C1CCc2ccccc21 (centres unmarked) : 13.68%
- CCOc1ncccc1NC(=O)c1sccc1C : 7.965%
- CCc1nc(N2CCCC(CO)(CCOC)C2)ncc1C (centres unmarked) : 14.24%
- CCCn1cc(C(=O)N2CCCC2(C)c2nc(C)cc(C)n2)cn1 (centres unmarked) : 15.82%
- COCCOc1ccc(NC(=O)N(C(C)C)C2CC2)cn1 : 20.32%
- COc1ccc2c(C)c(C(=O)NC3CCN(S(C)(=O)=O)CC3)oc2c1 : 2.41%
- c1cnc2c(c1)cc([C@H]1CCCO1)n2CCN1CCOCC1 : 16.1%
- CC(C)n1[nH]c(=O)c2c1NC(=O)CC2c1ccc(C#N)cc1 (centres unmarked) : 7.034%
- O=C(CCc1cc2n(n1)CCCN(CCc1ccccc1)C2)NC1CC1 : 14.08%
- O=C(N[C@@H]1CC[C@@H](N2CCCC2)[C@@H]1O)c1cc2ccccc2[nH]1 : 9.974%
- CC1CCCCN1C(=O)c1nc2c(n1C(C)C)CCN(C)C2 (centres unmarked) : 1.812%
- CC(CNC(=O)c1c[nH]nn1)Oc1ccc(Cl)cc1 (centres unmarked) : 13%
- Cc1ccccc1C1CCCN1C(=O)CN1CC2(CCNCC2)OC1=O (centres unmarked) : 11.96%
- COCCOc1cccc(C(=O)N2CCCC(n3ccnc3C)C2)c1 (centres unmarked) : 13.59%
- Cc1nc[nH]c1-c1nccn1CCN1CCCC1=O : 9.91%
- CC1CCCCN1C(=O)c1ccc2c(c1)OCCCO2 (centres unmarked) : 1.397%
- CS(=O)(=O)N1CCOC(CNC(=O)c2cccc(C#N)c2)C1 (centres unmarked) : 14.65%
- Cc1ccc(O)c(C(=O)N2CCOCC2c2c(C)n[nH]c2C)c1 (centres unmarked) : 6.733%
- Cc1nn(-c2ccccn2)c(C)c1[C@@H]1C=C[C@@H](NC(=O)NC(C)C)C1 : 7.692%
- O=C(CCC1CCCO1)NCc1ccc(Br)cc1F (centres unmarked) : 11.54%
- COc1ccc(-n2nc(C(C)=O)c(C(C)=O)c2C)cc1Cl : 6.971%
- COCC(O)CNC(=O)c1cc(COc2ccc3c(c2)CCCC3)on1 (centres unmarked) : 5.367%
- CCOC(=O)c1coc(N2CCC(C(O)CC(C)C)CC2)n1 (centres unmarked) : 11.54%
- COc1ccccc1S(=O)(=O)Nc1cnc(O)cc1C : 16.27%
- CCN1C(=O)[C@]2(CC[C@@H]3CN(C(=O)NCC(C)C)C[C@@H]32)N=C1C : 8.143%
- CC1(C)CN(Cc2csc(CS(C)(=O)=O)n2)Cc2ccccc21 : 13.08%
- CSc1ccccc1C(=O)N1C[C@H]2CC[C@@H]1CN(C(=O)N(C)C)C2 : 5.625%
- CN(C)C(=O)NCc1ncn2c1CN(S(C)(=O)=O)CCC2 : 8.711%
- CC(C)C(C)NC(=O)c1cc(Br)c2c(c1)OCCO2 (centres unmarked) : 20.52%
- CCc1ccc(CN2CCCC(c3nn(C)c(=O)n3CC)C2)nc1 (centres unmarked) : 8.541%
- Cc1ccccc1N1CC2(CCCCN2CC2CC2)CC1=O (centres unmarked) : 12.89%
- COCc1noc(Cn2c(=O)[nH]c3ccccc32)n1 : 7.068%
- Cn1ncc2c1NC(=O)CC2c1ccccc1Br (centres unmarked) : 11.33%
- Cc1cnn(Cc2cc(F)ccc2F)c1NC(=O)CNC(=O)C1CC1 : 8.798%
- CCc1cccc(C)c1NC(=O)c1ccccc1N(C)S(C)(=O)=O : 12.32%

For reference, 6 entries once more:

Compound,Inhibition
CC(C)C(C)NC(=O)c1cc(Br)c2c(c1)OCCO2 (centres unmarked),20.52%
Cc1c(Cl)c(C(F)(F)F)nn1C(C)C(=O)NN1CCN(C)CC1 (centres unmarked),8.287%
Cn1cc(CN2CC[C@H]3OCC[C@@H](C(=O)NC4CCCC4)[C@@H]3C2)cn1,18.73%
COCc1noc(Cn2c(=O)[nH]c3ccccc32)n1,7.068%
Cc1nn(-c2ccccn2)c(C)c1[C@@H]1C=C[C@@H](NC(=O)NC(C)C)C1,7.692%
Cc1cnn(C2CN(CC(=O)NCC3(c4ccccc4)CC3)C2)c1,10.6%

Measurements from “University of Dundee, Small-Polar-MMV Screening Library” (2021), ChEMBL document CHEMBL3988442.